Publication PMC7319344
Results are given in words; binding and its absence hold for the method and conditions named. In cells and extracts the contact can be indirect. Here binding means that the protein was enriched with, or labelled near, the bait; the list need not be complete. Tags and fused reporters may be left off the sequences shown.

By UniProt entry, the sequences of proteins in these tests, tags left out. Where a name states a change or a piece, a line headed by the entry shows the natural chain unless it says otherwise.
UniProt A0A1D8PRQ4: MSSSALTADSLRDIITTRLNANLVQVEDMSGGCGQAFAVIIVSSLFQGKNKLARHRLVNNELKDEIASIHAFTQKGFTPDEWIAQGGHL
UniProt A0A1D8PF19: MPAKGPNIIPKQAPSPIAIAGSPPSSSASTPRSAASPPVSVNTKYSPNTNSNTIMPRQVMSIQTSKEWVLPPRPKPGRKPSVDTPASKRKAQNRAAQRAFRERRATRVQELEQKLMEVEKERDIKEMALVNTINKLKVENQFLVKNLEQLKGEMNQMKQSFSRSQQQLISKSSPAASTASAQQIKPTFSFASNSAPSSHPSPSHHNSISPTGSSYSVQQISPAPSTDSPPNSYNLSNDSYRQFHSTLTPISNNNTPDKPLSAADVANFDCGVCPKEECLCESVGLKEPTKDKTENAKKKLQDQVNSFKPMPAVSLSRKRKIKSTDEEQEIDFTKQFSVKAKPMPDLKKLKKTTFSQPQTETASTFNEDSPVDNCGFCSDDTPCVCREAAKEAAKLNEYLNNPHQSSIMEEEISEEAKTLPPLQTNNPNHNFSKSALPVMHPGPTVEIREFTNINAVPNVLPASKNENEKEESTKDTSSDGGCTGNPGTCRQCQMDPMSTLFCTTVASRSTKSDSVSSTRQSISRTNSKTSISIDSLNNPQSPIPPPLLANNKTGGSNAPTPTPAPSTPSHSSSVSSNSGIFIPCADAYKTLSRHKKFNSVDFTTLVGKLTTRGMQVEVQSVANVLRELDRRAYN

target: T1, Grx3-HBH (C. albicans monothiol glutaredoxin Grx3 with His-Biotin-His tag) (C. albicans) (UniProt Q5AF81); experiment: affinity purification with mass spectrometry; in vivo cross-linking with 1% formaldehyde for 10 min, His-Biotin-His (HBH) tandem affinity purification of Grx3-HBH under denaturing conditions (lysis in 8M urea buffer), label-free quantitative LC-MS/MS; cells grown in YPM with or without 500 uM BPS for 6hr or 16hr; proteins in untagged control, Wor1/Tup1 HBH purifications and the CRAPome excluded
T1 sequence: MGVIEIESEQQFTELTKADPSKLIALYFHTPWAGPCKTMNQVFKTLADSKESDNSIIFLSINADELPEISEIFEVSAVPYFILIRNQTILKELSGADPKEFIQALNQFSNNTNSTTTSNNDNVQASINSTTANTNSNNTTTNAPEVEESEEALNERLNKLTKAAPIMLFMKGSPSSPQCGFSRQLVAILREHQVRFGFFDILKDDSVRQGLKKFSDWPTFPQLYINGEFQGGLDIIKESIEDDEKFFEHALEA

Substance	binding
Bol2/Fra2 (from UniProt A0A1D8PRQ4)	binds
Dre2 (C. albicans (endogenous in C. albicans))	binds
Fra1 (C. albicans (endogenous in C. albicans))	binds
Hap43 (from UniProt A0A1D8PF19 1-634)	binds

Results, then the substance that gave them:

binding	Substance
binds	Bol1 (C. albicans (endogenous in C. albicans))
binds	Met18 (S. cerevisiae Mms19) (C. albicans (endogenous in C. albicans))
